For three molecules, binding results are on record in publication doi:10.1101/812149.

Protein sequences, listed by entry. Tags and fused reporters are not part of them.
UniProt Q13887: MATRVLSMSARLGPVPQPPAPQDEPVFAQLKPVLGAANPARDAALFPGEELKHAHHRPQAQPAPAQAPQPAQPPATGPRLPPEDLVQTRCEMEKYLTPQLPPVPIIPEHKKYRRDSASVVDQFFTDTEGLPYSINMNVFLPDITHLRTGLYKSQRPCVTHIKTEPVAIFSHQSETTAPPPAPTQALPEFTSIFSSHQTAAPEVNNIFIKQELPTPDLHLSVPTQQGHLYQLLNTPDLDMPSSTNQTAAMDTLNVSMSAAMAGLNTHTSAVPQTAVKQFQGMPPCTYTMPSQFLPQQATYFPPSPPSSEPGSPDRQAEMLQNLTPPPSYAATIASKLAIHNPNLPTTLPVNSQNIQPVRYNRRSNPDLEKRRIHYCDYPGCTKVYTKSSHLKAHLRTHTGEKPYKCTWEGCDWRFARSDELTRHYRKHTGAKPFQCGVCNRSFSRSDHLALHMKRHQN
UniProt P43694: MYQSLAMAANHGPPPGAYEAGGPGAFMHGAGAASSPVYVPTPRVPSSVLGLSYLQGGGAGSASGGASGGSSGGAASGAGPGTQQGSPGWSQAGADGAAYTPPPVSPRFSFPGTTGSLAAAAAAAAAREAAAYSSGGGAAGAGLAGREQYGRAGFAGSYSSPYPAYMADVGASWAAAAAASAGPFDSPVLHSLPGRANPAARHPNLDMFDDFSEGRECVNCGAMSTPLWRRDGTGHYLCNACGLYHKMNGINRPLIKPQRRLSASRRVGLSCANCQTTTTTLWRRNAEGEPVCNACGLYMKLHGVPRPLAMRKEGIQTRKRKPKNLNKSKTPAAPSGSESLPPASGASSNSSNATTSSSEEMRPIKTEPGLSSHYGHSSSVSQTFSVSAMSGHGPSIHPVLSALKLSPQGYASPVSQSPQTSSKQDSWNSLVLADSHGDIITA
UniProt Q92908: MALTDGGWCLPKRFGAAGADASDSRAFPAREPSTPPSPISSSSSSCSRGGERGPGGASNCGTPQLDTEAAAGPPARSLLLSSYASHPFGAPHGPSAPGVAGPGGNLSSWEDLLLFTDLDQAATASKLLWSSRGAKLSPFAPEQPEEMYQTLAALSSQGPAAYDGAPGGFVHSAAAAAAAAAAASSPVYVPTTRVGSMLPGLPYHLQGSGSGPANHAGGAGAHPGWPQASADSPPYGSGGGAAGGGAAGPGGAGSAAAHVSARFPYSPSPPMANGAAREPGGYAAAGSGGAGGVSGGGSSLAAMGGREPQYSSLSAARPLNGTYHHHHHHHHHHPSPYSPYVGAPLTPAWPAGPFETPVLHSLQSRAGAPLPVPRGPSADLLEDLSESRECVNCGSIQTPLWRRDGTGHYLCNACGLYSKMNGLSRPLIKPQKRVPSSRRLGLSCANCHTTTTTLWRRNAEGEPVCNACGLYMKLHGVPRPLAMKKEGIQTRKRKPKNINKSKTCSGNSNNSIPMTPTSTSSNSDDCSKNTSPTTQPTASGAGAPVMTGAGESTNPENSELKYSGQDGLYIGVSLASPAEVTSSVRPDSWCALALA

Results are given in words; binding and its absence hold for the method and conditions named. Binding seen in cells or lysates may run through a third protein.

Holding throughout (test): co-IP
Assay [1] concerns the target KLF5 (human (endogenous in Eso26)) (UniProt Q13887).
Assay [2] has as its target GATA4 (human (endogenous in Eso26)) (UniProt P43694).
Assay [3] addresses GATA6 (human (endogenous in Eso26)) (UniProt Q92908).
In assay [4] the target is GATA6 (human (endogenous in Eso26)), Q92908. Particulars: remark: other sources report otherwise.

B1: ELF3 (protein, UniProt P78545 1-371)
chain: MAATCEISNIFSNYFSAMYSSEDSTLASVPPAATFGADDLVLTLSNPQMSLEGTEKASWLGEQPQFWSKTQVLDWISYQVEKNKYDASAIDFSRCDMDGATLCNCALEELRLVFGPLGDQLHAQLRDLTSSSSDELSWIIELLEKDGMAFQEALDPGPFDQGSPFAQELLDDGQQASPYHPGSCGAGAPSPGSSDVSTAGTGASRSSHSSDSGGSDVDLDPTDGKLFPSDGFRDCKKGDPKHGKRKRGRPRKLSKEYWDCLEGKKSKHAPRGTHLWEFIRDILIHPELNEGLMKWENRHEGVFKFLRSEAVAQLWGQKKKNSNMTYEKLSRAMRYYYKREILERVDGRRLVYKFGKNSSGWKEEEVLQSRN
For the molecule B1, the binding entry in assay [1], in assay [2] and in assay [3] was “no binding” in each case.

B2: HNF4A (protein, UniProt P41235 1-474)
chain: MRLSKTLVDMDMADYSAALDPAYTTLEFENVQVLTMGNDTSPSEGTNLNAPNSLGVSALCAICGDRATGKHYGASSCDGCKGFFRRSVRKNHMYSCRFSRQCVVDKDKRNQCRYCRLKKCFRAGMKKEAVQNERDRISTRRSSYEDSSLPSINALLQAEVLSRQITSPVSGINGDIRAKKIASIADVCESMKEQLLVLVEWAKYIPAFCELPLDDQVALLRAHAGEHLLLGATKRSMVFKDVLLLGNDYIVPRHCPELAEMSRVSIRILDELVLPFQELQIDDNEYAYLKAIIFFDPDAKGLSDPGKIKRLRSQVQVSLEDYINDRQYDSRGRFGELLLLLPTLQSITWQMIEQIQFIKLFGMAKIDNLLQEMLLGGSPSDAPHAHHPLHPHLMQEHMGTNVIVANTMPTHLSNGQMCEWPRPRGQAATPETPQPSPPGGSGSEPYKLLPGAVATIVKPLSAIPQPTITKQEVI
On to B2, for which the binding entry in assay [1] and in assay [2] was “no binding” in each case.

B3: HNF4A, P41235 1-474 (protein)
chain: MRLSKTLVDMDMADYSAALDPAYTTLEFENVQVLTMGNDTSPSEGTNLNAPNSLGVSALCAICGDRATGKHYGASSCDGCKGFFRRSVRKNHMYSCRFSRQCVVDKDKRNQCRYCRLKKCFRAGMKKEAVQNERDRISTRRSSYEDSSLPSINALLQAEVLSRQITSPVSGINGDIRAKKIASIADVCESMKEQLLVLVEWAKYIPAFCELPLDDQVALLRAHAGEHLLLGATKRSMVFKDVLLLGNDYIVPRHCPELAEMSRVSIRILDELVLPFQELQIDDNEYAYLKAIIFFDPDAKGLSDPGKIKRLRSQVQVSLEDYINDRQYDSRGRFGELLLLLPTLQSITWQMIEQIQFIKLFGMAKIDNLLQEMLLGGSPSDAPHAHHPLHPHLMQEHMGTNVIVANTMPTHLSNGQMCEWPRPRGQAATPETPQPSPPGGSGSEPYKLLPGAVATIVKPLSAIPQPTITKQEVI
For the molecule B3, the binding result in assay [4] was “no binding”.
